In the assay the target is MYC-CENTLEIN (human (from HeLa cDNA)) (UniProt Q9NXG0). Put plainly: co-IP; HEK293T co-transfected with MYC-CENTLEIN (or its deletion) and a GFP-tagged plasmid for 48 h; anti-MYC immunoprecipitation, blot with anti-GFP and anti-MYC; ELB buffer (50 mM HEPES pH 7.4, 250 mM NaCl, 0.1% NP-40), 4°C.

Protein sequences, listed by entry. Tags and fused reporters are not part of them. Lines headed by an entry give the natural chain unless they say otherwise; changes in a name come on top.
UniProt Q9NXG0: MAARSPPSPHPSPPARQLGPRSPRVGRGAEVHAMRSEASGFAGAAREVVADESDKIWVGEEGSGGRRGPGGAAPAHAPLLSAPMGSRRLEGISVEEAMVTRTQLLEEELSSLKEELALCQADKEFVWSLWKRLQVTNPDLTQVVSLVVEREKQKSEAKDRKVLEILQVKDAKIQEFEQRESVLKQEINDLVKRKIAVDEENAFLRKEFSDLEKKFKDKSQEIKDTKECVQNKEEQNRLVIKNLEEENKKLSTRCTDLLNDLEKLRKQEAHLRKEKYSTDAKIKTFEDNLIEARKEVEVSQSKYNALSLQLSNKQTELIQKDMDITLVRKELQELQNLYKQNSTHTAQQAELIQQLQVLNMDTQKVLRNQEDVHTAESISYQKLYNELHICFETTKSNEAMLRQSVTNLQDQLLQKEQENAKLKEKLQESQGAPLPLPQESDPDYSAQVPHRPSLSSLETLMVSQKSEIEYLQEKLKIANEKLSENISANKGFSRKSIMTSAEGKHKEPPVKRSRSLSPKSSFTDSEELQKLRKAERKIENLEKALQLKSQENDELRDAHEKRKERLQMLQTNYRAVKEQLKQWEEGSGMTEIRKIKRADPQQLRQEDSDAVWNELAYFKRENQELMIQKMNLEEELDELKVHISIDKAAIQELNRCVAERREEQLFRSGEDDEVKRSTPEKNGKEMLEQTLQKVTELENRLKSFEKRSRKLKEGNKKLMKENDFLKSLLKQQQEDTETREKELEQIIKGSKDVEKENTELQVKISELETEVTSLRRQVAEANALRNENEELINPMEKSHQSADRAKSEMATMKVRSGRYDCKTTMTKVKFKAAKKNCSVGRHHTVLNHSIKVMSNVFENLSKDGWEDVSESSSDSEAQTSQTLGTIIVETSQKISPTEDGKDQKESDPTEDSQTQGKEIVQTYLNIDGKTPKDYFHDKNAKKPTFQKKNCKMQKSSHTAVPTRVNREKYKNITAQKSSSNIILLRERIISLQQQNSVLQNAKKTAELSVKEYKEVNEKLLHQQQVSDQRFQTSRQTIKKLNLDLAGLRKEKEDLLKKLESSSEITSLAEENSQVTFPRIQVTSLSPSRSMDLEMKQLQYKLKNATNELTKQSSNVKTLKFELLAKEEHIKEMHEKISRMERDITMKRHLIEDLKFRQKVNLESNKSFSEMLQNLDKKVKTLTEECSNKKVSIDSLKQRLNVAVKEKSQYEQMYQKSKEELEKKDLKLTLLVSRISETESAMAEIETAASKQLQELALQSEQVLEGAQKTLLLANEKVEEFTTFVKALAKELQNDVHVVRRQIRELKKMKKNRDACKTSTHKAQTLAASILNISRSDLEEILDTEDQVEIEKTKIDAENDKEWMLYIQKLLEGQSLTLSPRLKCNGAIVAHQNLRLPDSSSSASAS

No constants are given. Whether binding was seen depends on the method and setting. In cells and extracts the contact can be indirect. A result given as binding can be weak or reduced; the word gives no strength. Where a sequence is shown, tags or fusion partners need not be part of it.

B1: GFP-RABIN8 (protein, UniProt Q96QF0-2 1-460)
chain: MANDPLEGFHEVNLASPTSPDLLGVYESGTQEQTTSPSVIYRPHPSALSSVPIQANALDVSELPTQPVYSSPRRLNCAEISSISFHVTDPAPCSTSGVTAGLTKLTTRKDNYNAEREFLQGATITEACDGSDDIFGLSTDSLSRLRSPSVLEVREKGYERLKEELAKAQRELKLKDEECERLSKVRDQLGQELEELTASLFEEAHKMVREANIKQATAEKQLKEAQGKIDVLQAEVAALKTLVLSSSPTSPTQEPLPGGKTPFKKGHTRNKSTSSAMSGSHQDLSVIQPIVKDCKEADLSLYNEFRLWKDEPTMDRTCPFLDKIYQEDIFPCLTFSKSELASAVLEAVENNTLSIEPVGLQPIRFVKASAVECGGPKKCALTGQSKSCKHRIKLGDSSNYYYISPFCRYRITSVCNFFTYIRYIQQGLVKQQDVDQMFWEVMQLRKEMSLAKLGYFKEEL
B1: the binding result is on record as “binds”.

B2: GFP-KIFC3 (protein, UniProt Q9BVG8 1-833)
chain: MVPSRRTWNLGATPSLRGLWRVGRAPEPEPGMARPAPAPASPAARPFPHTGPGRLRTGRGKDTPVCGDEDSSARSAARPALAQCRALSVDWAGPGSPHGLYLTLQVEHLKEKLISQAQEVSRLRSELGGTDLEKHRDLLMVENERLRQEMRRCEAELQELRTKPAGPCPGCEHSQESAQLRDKLSQLQLEMAESKGMLSELNLEVQQKTDRLAEVELRLKDCLAEKAQEEERLSRRLRDSHETIASLRAQSPPVKYVIKTVEVESSKTKQALSESQARNQHLQEQVAMQRQVLKEMEQQLQSSHQLTARLRAQIAMYESELERAHGQMLEEMQSLEEDKNRAIEEAFARAQVEMKAVHENLAGVRTNLLTLQPALRTLTNDYNGLKRQVRGFPLLLQEALRSVKAEIGQAIEEVNSNNQELLRKYRRELQLRKKCHNELVRLKGNIRVIARVRPVTKEDGEGPEATNAVTFDADDDSIIHLLHKGKPVSFELDKVFSPQASQQDVFQEVQALVTSCIDGFNVCIFAYGQTGAGKTYTMEGTAENPGINQRALQLLFSEVQEKASDWEYTITVSAAEIYNEVLRDLLGKEPQEKLEIRLCPDGSGQLYVPGLTEFQVQSVDDINKVFEFGHTNRTTEFTNLNEHSSRSHALLIVTVRGVDCSTGLRTTGKLNLVDLAGSERVGKSGAEGSRLREAQHINKSLSALGDVIAALRSRQGHVPFRNSKLTYLLQDSLSGDSKTLMVVQVSPVEKNTSETLYSLKFAERVRSVELGPGLRRAELGSWSSQEHLEWEPACQTPQPSARAHSAPSSGTSSRPGSIRRKLQPSGKSRPLPV
For the molecule B2, the binding result is listed as “binds”.

For the origin of these results see article PMC10520482.
